Results are given in words; binding and its absence hold for the method and conditions named. Some results given as binding are weak or reduced against the parent protein; the word gives no strength. One block for each binder: values may come before it.
Biological target: 人源重组C5蛋白 (Sino Biologica, Cat#13416-H18H) (human) (UniProt P01031)
Assay: direct ELISA, C5 coated at 1 μg/mL, anti-Fc-HRP detection

The chains behind the UniProt entries cited, without tags or fusion partners. Where a name states a change or a piece, a line headed by the entry shows the natural chain unless it says otherwise. Residues count along the entry.
UniProt P01031, residues 19-1676: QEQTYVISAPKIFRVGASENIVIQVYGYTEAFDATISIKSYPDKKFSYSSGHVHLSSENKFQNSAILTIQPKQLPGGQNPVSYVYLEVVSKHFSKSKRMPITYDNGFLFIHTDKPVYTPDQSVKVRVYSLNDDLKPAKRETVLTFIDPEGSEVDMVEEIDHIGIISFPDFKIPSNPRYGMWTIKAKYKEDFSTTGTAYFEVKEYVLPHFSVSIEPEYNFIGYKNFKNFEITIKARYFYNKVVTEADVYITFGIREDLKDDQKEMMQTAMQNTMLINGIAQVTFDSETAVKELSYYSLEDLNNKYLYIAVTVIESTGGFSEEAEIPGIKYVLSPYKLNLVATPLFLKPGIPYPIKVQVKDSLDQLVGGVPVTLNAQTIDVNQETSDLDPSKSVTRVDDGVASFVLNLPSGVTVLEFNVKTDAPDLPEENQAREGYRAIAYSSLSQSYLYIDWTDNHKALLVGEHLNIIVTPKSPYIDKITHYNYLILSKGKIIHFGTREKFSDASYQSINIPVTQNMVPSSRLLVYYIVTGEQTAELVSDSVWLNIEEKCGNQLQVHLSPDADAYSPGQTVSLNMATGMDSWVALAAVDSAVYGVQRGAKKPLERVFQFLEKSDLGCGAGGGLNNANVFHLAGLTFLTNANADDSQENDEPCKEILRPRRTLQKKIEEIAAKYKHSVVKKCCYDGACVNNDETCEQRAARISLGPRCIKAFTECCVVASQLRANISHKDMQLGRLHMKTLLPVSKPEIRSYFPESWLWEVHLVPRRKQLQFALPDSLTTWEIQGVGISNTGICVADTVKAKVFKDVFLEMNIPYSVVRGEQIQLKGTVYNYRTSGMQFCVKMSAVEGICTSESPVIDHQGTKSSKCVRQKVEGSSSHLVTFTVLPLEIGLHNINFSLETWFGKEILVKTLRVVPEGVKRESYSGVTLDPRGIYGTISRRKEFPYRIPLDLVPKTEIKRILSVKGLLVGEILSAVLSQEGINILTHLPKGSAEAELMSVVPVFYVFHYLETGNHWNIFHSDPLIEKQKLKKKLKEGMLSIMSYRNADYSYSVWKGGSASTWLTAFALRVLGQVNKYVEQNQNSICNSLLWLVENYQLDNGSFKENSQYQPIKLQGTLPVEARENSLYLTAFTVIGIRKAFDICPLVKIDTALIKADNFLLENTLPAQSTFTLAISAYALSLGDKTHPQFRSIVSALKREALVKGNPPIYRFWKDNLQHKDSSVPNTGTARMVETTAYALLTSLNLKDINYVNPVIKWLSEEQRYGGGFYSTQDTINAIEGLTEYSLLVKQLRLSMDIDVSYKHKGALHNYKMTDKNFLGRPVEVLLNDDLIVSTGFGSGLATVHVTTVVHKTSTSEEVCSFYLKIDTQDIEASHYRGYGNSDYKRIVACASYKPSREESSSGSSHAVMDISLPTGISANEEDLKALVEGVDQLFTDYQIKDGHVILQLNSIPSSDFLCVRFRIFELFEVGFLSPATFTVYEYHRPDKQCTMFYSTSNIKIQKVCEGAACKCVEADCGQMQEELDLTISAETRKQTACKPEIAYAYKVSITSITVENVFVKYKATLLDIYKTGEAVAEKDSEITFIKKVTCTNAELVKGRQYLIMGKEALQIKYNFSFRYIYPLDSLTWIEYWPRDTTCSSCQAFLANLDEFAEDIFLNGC

- binding: binds
B1: CR3#30/IgG4 (antibody, V domains shown)
VH: QVQLVESGAEVKKPGASVKVSCKASGYTFTSYYMHWVRQAPGQGLEWMGIINPSGGSTSYAQKFQGRVTMTRDTSTSTVYMELSSLRSEDTAVYYCARGTVDDAFDIWGQGTMVTVSS
VL: QSALTQPPSASGSPGQSVTISCTGTSSDVGGYDLVSWYQQHPGKAPKLMIYDVSKRPSGVPDRFSGSKSGNTASLTVSGLQADDEADYYCSSFADSNNWEVVFGGGTKLTVLG

- binding: binds
B2: CR3#24/IgG4 (antibody, V domains shown)
VH: EVQLVQSGAEVKKPGAAVKISCKVSGYTFTDYYMHWVQQAPGKGLEWMGVVDPEDGEIIYAEKFQGRITITADTSTDTVYMELSSLRSEDTAVYYCARSDYGAGSYMVDPWGQGTLVTVSS
VL: SYVLTQPPSVSVTPGKTARIACGGNNLESKIVSWYQQKPGQAPVLVIFYDTDRPSGISERFSGSNSGNTATLTISRVEAGDEADYYCQVWDSNSDHVIFGGGTKLTVLG
